Assay [1] concerns the target Upa1-Gfp with block mutation in PAM2L2 (Gal4 DNA-binding domain fusion) (Ustilago maydis). As to the kind of experiment: two-hybrid; Matchmaker 3, S. cerevisiae AH109; Upa1 versions fused to the Gal4p DNA-binding domain, Rrm4 versions to the activation domain; growth on SD without leucine, tryptophan, histidine and adenine, 28°C, 2 days.
The target of assay [2] is Upa1-Gfp with block mutation in PAM2L1 (Gal4 DNA-binding domain fusion) (Ustilago maydis). The assay is described as above.

Results are given in words; binding and its absence hold for the method and conditions named. Binding can be weak; no strength is given.

For “Rrm4-Kat (Gal4 activation domain fusion) (from UniProt A0A0D1DWZ5 1-792)”, the binding entry in assay [1] and in assay [2] was “binds” throughout.

In the case of “Rrm4-Kat with deletion of MLLE3^Rrm4 (Gal4 activation domain fusion) (from UniProt A0A0D1DWZ5)”, the binding entry in assay [1] and in assay [2] was “no binding” each time.

As to “Rrm4-M1,2Δ-Kat (Gal4 activation domain fusion) (from UniProt A0A0D1DWZ5)”, the binding result in assay [1] and in assay [2] was “binds” in each case.

For “Rrm4-M1Δ-Kat (Gal4 activation domain fusion) (from UniProt A0A0D1DWZ5)”, the binding result in assay [1] and in assay [2] was “binds” throughout.

As for “Rrm4-M2Δ-Kat (Gal4 activation domain fusion) (from UniProt A0A0D1DWZ5)”, the binding entry in assay [1] and in assay [2] was “binds” in each case.

The record behind these values is publication PMC9249222.
